Measured data: PubChem BioAssay AID504808 (Drosophila RNAi Screening Center, 2011)
Test: 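Genes whose loss lifts activity of an E2F-responsive reporter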 (primary screen). System: Drosophila S2 cells. Reagent: long dsRNA against Drosophila genes. Detection: 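Firefly luciferase driven by E2F sites, normalised to Renilla luciferase on the same minimal promoter, measured by plate reader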. Reading the numbers: E2F firefly: higher = more E2F reporter activity; Renilla normaliser: higher = more normaliser reporter signal. Rule for the call: 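a knock-down counted as active when the firefly/Renilla E2F signal rose above 50%, a threshold chosen arbitrarily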.
In all, the deposit lists about 21,000 reagents; this is an unselected part of those with a known target gene and a result. In the full data, 18 (0.084%) are marked active. 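Raw counts without plate normalisation, one of two replicates; the ratio scores behind the calls were not deposited.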 A plus sign joins genes that one reagent is predicted to hit. Reagent sequences are not shown. Not stated in the record: the amount of reagent, the time to read-out.

| Target gene | amplicon | E2F firefly, rep 1 | Renilla normaliser, rep 1 | call |
| --- | --- | --- | --- | --- |
| CG1421 | DRSC03707 | 99988 | 4216 | inactive |
| CG42375 + CG9288 | DRSC16468 | 77614 | 3225 | inactive |
| Lip3 (Lipase 3) | DRSC16727 | 1.08e5 | 5824 | inactive |
| cag | DRSC07587 | 1.35e5 | 4349 | inactive |
| CG6013 | DRSC15947 | 64609 | 3724 | inactive |
| CG6073 | DRSC15962 | 89937 | 932 | inactive |
| morgue (modifier of rpr and grim, ubiquitously expressed) | DRSC00264 | 98203 | 3671 | inactive |
| CG7744 | DRSC07036 | 73221 | 3291 | inactive |
| AdoR (Adenosine receptor) | DRSC16556 | 82670 | 5478 | inactive |
| CG32639 | DRSC18972 | 80947 | 2432 | inactive |
| FeCH (Ferrochelatase) | DRSC16948 | 1916 | 920 | inactive |
| CG15196 | DRSC19643 | 1.25e5 | 6277 | inactive |
| CG6048 | DRSC18398 | 1.09e5 | 6101 | inactive |
| CG13085 | DRSC02189 | 1.09e5 | 5148 | inactive |
| Hsp60A (Heat shock protein 60A) | DRSC20254 | 8006 | 776 | inactive |
| CG8042 | DRSC09676 | 67593 | 3888 | inactive |
| Mgat2 | DRSC16347 | 1623 | 952 | inactive |
| Nepl18 (Neprilysin-like 18) | DRSC14879 | 1.12e5 | 6164 | inactive |
| CG3397 | DRSC15487 | 61459 | 3549 | inactive |
| eIF4G1 (eukaryotic translation initiation factor 4G1) | DRSC17218 | 2994 | 952 | inactive |
| CCT4 (Chaperonin containing TCP1 subunit 4) | DRSC02865 | 1.02e5 | 4894 | inactive |
| Atf3 (Activating transcription factor 3) | DRSC17225 | 85029 | 4612 | inactive |
| CG16820 | DRSC02522 | 74251 | 3727 | inactive |
| CG13678 | DRSC10036 | 57729 | 3458 | inactive |
| CG32354 | DRSC10763 | 76825 | 3535 | inactive |
| CG32354 | DRSC10775 | 93404 | 3772 | inactive |
| CG7849 | DRSC04895 | 1.17e5 | 4964 | inactive |
| Rap2l (Ras-associated protein 2-like) | DRSC04646 | 1.15e5 | 4073 | inactive |
| CG33978 | DRSC17106 | 78234 | 2430 | inactive |
| RpS5a (Ribosomal protein S5a) | DRSC20282 | 1.57e5 | 5609 | inactive |
| Cdlc2 (Cytoplasmic dynein light chain 2) | DRSC00743 | 85719 | 3705 | inactive |
| Vha36-2 (Vacuolar H[+] ATPase 36kD subunit 2) | DRSC06294 | 1.08e5 | 4629 | inactive |
| CG3640 | DRSC04399 | 1.15e5 | 5078 | inactive |
| Adar (Adenosine deaminase acting on RNA) | DRSC17725 | 1.20e5 | 5503 | inactive |
| Osi5 (Osiris 5) | DRSC12276 | 1.34e5 | 6592 | inactive |
| Nin (Ninein) | DRSC02007 | 92246 | 3663 | inactive |
| CG42394 + CG6567 | DRSC12821 | 68667 | 3989 | inactive |
| CG1275 | DRSC08294 | 81807 | 3970 | inactive |
| CG14673 (retired record) | DRSC12259 | 1.26e5 | 6390 | inactive |
| CG11779 | DRSC14384 | 75975 | 4201 | inactive |
| her (hermaphrodite) | DRSC03543 | 85665 | 3748 | inactive |
| OtopLc (Otopetrin-like c) | DRSC18082 | 1.09e5 | 4653 | inactive |
| OtopLc (Otopetrin-like c) | DRSC18083 | 82833 | 4478 | inactive |
| OtopLc (Otopetrin-like c) | DRSC18132 | 1.19e5 | 4964 | inactive |
| Gss1 + Gss2 | DRSC20008 | 1.55e5 | 6160 | inactive |
| CG1850 | DRSC06762 | 1.48e5 | 5560 | inactive |
| Tsp26A (Tetraspanin 26A) | DRSC03135 | 1.40e5 | 5344 | inactive |
| CG12784 | DRSC14539 | 1.19e5 | 7292 | inactive |
| CG30001 | DRSC05191 | 1.47e5 | 6812 | inactive |
| CG2983 | DRSC00558 | 1.57e5 | 5295 | inactive |
| CG10237 | DRSC02029 | 93378 | 3398 | inactive |
| RpL21 (Ribosomal protein L21) | DRSC03704 | 73983 | 5417 | inactive |
| Muc11A (Mucin 11A) | DRSC19498 | 1.32e5 | 6880 | inactive |
| Fpps (Farnesyl pyrophosphate synthase) | DRSC07429 | 3343 | 189 | inactive |
| Alp8 (Alkaline phosphatase 8) | DRSC04353 | 99681 | 3473 | inactive |
| CG32214 | DRSC09613 | 90846 | 3666 | inactive |
| Uro (Urate oxidase) | DRSC03469 | 1.66e5 | 5289 | inactive |
